Experimental data reported in the supplement of paper PMC12889115.
This is one part of the list. Values are raw readings; no control value is given beside them.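 Primary screen: polymyxin B was added at a level permeabilizing Salmonella outer membranes while sparing inner membranes. DMSO wells, both with and without polymyxin B, established maximum growth. Plate-to-plate variation meant each plate was ranked on its own, and the lowest-OD600 compounds were selected as hits.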

System: Salmonella enterica serovar Typhimurium SL1344
Test: bacterial growth OD600 after 18 h with compound and polymyxin B; higher = more bacterial growth (less inhibition)
Details: 50 µM, Mueller-Hinton broth

SMILES | bacterial growth OD600 (polymyxin B 1 µg/mL) | bacterial growth OD600 (polymyxin B 0.75 µg/mL)
COCc1noc(-c2ccc(N3CCCOCC3)nc2)n1 | 0.993 | –
Cc1cc2nc(N3CCC(C(=O)NC4CCOC4)CC3)nc(C)c2cc1C (stereo unspecified) | – | 0.778
CN(CC1CCCN(CCc2cccc(C(F)(F)F)c2)C1)C(=O)CCn1cnnn1 (stereo unspecified) | – | 0.855
COCc1ccc(C(=O)NCc2cccnc2-n2cnc3ccccc32)o1 | 0.844 | –
CC(=O)c1ccc(C(=O)N2CCC3(CCCN(CCc4ccccc4)C3)C2)s1 (stereo unspecified) | 0.521 | –
c1cc(CN(CCN2CCCCC2)CC2CCCN(C3CCCC3)C2)no1 (stereo unspecified) | 0.932 | –
CSc1cccc(CN2CCCC(CNC(=O)c3cccs3)C2)c1 (stereo unspecified) | 0.709 | –
CCC(=O)N1CCCC(c2nc(-c3cccnc3)ncc2-c2ccccc2F)C1 (stereo unspecified) | – | 0.821
CSc1nccc(-c2cc(Cl)c3c(c2)CC(CNC(=O)CC2CC2)O3)n1 (stereo unspecified) | – | 0.49
CCN1CCN(Cc2ccc(OCC(O)CN3CCN(CC)CC3)c(OC)c2)CC1 (stereo unspecified) | 0.927 | –
CC(C)CN1CCC(N2CCCC(C(=O)NC3CC3)C2)CC1 (stereo unspecified) | – | 0.828
O=C(c1cccc2ccccc12)C1CCCN(Cc2cccc3c2OCO3)C1 (stereo unspecified) | 0.558 | –
O=C(Nc1ccccc1Oc1cccnc1)C1CCCN1C1CCCCC1 (stereo unspecified) | 0.657 | –
Cc1nc(N(C)C2CCCCC2)ncc1C(C)NC(=O)C(C)C (stereo unspecified) | – | 0.713
COC(=O)C1CCCCN1C(=O)c1c(OC)cc(=O)n2c1CCN(Cc1cccc(F)c1F)CC2 (stereo unspecified) | – | 0.841
CC(C)CNC(=O)C1CCCN(C2CCN(C(=O)C3CC3)CC2)C1 (stereo unspecified) | – | 0.817

Looked up above.
For bacterial growth OD600 (polymyxin B 0.75 µg/mL), Cc1cc2nc(N3CCC(C(=O)NC4CCOC4)CC3)nc(C)c2cc1C (stereo unspecified) is listed with 0.778
For bacterial growth OD600 (polymyxin B 0.75 µg/mL), CCC(=O)N1CCCC(c2nc(-c3cccnc3)ncc2-c2ccccc2F)C1 (stereo unspecified) is listed with 0.821

Next part.

SMILES | bacterial growth OD600 (polymyxin B 1 µg/mL) | bacterial growth OD600 (polymyxin B 0.75 µg/mL)
COC(=O)C1CCCCN1Cc1nc(-c2ccccc2C)oc1C (stereo unspecified) | 0.826 | –
COc1cc(-c2cnnc(N3CCC(c4ccc(F)cc4)C3)n2)cc(OC)c1OC (stereo unspecified) | 1.16 | –
Cc1cccc(CN2CCN(C(=O)c3cn(CC(C)C)cc(C(=O)NCCC(C)C)c3=O)CC2)c1 | – | 0.006
OCC#Cc1csc(CN2CC[C@@H](N3CCN(c4ccccn4)CC3)[C@H](O)C2)c1 | 0.866 | –
Cc1nc(CN(C)C(=O)CC2(c3ccccc3F)CC(=O)N(C3CCCCC3)C2=O)cs1 (stereo unspecified) | – | 0.005
O=C(NCCN1CCOCC1)c1ccc(N2CCC(NC[C@H]3CCc4ccccc4O3)CC2)cc1 | – | 0.814
COc1cccc(CC(C2CCN(C(=O)c3ccccc3F)CC2)N(C)C(=O)c2ccsc2)c1 (stereo unspecified) | – | 0.575
O=C(Nc1cccc(N2CCC(NCCOc3cccnc3)CC2)c1)c1cccc(C(F)(F)F)c1 | – | 0.779
O=C(CCc1ccsc1)NC1CCCc2nc(-c3ccccc3)ncc21 (stereo unspecified) | 0.915 | –
CSc1ccccc1OCc1cc(C(=O)NC(C)c2cnn(C)c2)no1 (stereo unspecified) | 0.919 | –
CCn1cc(C(=O)NCc2cccnc2-n2cnc3ccccc32)cn1 | 1.07 | –
Cc1noc(C)c1CCCNC(=O)c1ccc(N(C)C)nc1 | 1.02 | –
COC1CCN(C(=O)Cc2c3c(n(Cc4ccccc4)c2C)CCCC3=O)CC1 | 1.12 | –
COCCC(=O)NC1CCCc2c1cnn2-c1ccc(C(C)(C)C)cc1 (stereo unspecified) | 1.13 | –
CC(=O)N1CCC(C(=O)N2CCCC(CCc3ccccc3C)C2)CC1 (stereo unspecified) | – | 0.6
